{"source": "PubChem BioAssay AID602196 (INSERM, 2012)", "screen": "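Knock-downs that protect lung cancer cells from cisplatin or sensitise them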", "system": "human A549 lung cancer cells", "knock-down reagent": "siRNA pair against human genes", "time to read-out": "48 h transfection before cisplatin; time from cisplatin to read-out not stated", "treatment": "cisplatin at a dose killing half of control-siRNA cells; exact dose and duration not given", "measured": "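Cisplatin cell death as a shift from the 50% death seen with control siRNA; siRNAs toxic or growth-blocking alone scored 0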", "scale": "two-siRNA summed score (-2 to +2): higher = both siRNAs protect from cisplatin killing; -2 means both sensitise", "call rule": "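siRNAs harmful alone (LDH or WST-1) get 0; others get +1 for less and -1 for more cisplatin killing; genes are active when the two siRNAs give the same sign, summing to ±2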", "calls": "active = both siRNAs shift cisplatin killing the same way; inactive = no consistent shift, or siRNA harmful alone", "note": "The deposit covers about 23,000 reagents; shown is an unselected part. 455 of them (2%) were called active. 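Active includes both protection and sensitisation; some change values fall well beyond the stated -50 to +50 range.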 Not all columns of the deposit are shown. The record does not give: the amount of reagent."}
{"Target gene":"FBXO28","two-siRNA summed score (-2 to +2)":0,"activity call":"inactive"}
{"Target gene":"GAR1","two-siRNA summed score (-2 to +2)":1,"activity call":"inactive"}
{"Target gene":"ENTPD6","two-siRNA summed score (-2 to +2)":1,"activity call":"inactive"}
{"Target gene":"PROSER1","two-siRNA summed score (-2 to +2)":0,"activity call":"inactive"}
{"Target gene":"TASOR","two-siRNA summed score (-2 to +2)":0,"activity call":"inactive"}
{"Target gene":"LINC00482","two-siRNA summed score (-2 to +2)":0,"activity call":"inactive"}
{"Target gene":"RALGAPB","two-siRNA summed score (-2 to +2)":0,"activity call":"inactive"}
{"Target gene":"NSF","two-siRNA summed score (-2 to +2)":1,"activity call":"inactive"}
{"Target gene":"ASMT","two-siRNA summed score (-2 to +2)":-1,"activity call":"inactive"}
{"Target gene":"NPPB","two-siRNA summed score (-2 to +2)":0,"activity call":"inactive"}
{"Target gene":"SLC49A4","two-siRNA summed score (-2 to +2)":0,"activity call":"inactive"}
{"Target gene":"LOC389863","two-siRNA summed score (-2 to +2)":0,"activity call":"inactive"}
{"Target gene":"OR5AC2","two-siRNA summed score (-2 to +2)":0,"activity call":"inactive"}
{"Target gene":"ZNF284","two-siRNA summed score (-2 to +2)":0,"activity call":"inactive"}
{"Target gene":"FAM149A","two-siRNA summed score (-2 to +2)":1,"activity call":"inactive"}
{"Target gene":"MRPS18B","two-siRNA summed score (-2 to +2)":0,"activity call":"inactive"}
{"Target gene":"PPP2R3C","two-siRNA summed score (-2 to +2)":0,"activity call":"inactive"}
{"Target gene":"LOC392188","two-siRNA summed score (-2 to +2)":0,"activity call":"inactive"}
{"Target gene":"PKN1","two-siRNA summed score (-2 to +2)":0,"activity call":"inactive"}
{"Target gene":"TSPAN32","two-siRNA summed score (-2 to +2)":0,"activity call":"inactive"}

Copied from the list.
PROSER1, activity call → inactive
Value of FAM149A under “two-siRNA summed score (-2 to +2)”: 1
Value of LINC00482 in “activity call”: inactive
Under “activity call”, OR5AC2 shows inactive
Under “activity call”, TASOR shows inactive

Continued.
{"Target gene":"PGLYRP1","two-siRNA summed score (-2 to +2)":0,"activity call":"inactive"}
{"Target gene":"MAPKAP1","two-siRNA summed score (-2 to +2)":-1,"activity call":"inactive"}
{"Target gene":"HTR4","two-siRNA summed score (-2 to +2)":0,"activity call":"inactive"}
{"Target gene":"IL9","two-siRNA summed score (-2 to +2)":0,"activity call":"inactive"}
{"Target gene":"NPTX1","two-siRNA summed score (-2 to +2)":0,"activity call":"inactive"}
{"Target gene":"FBXO41","two-siRNA summed score (-2 to +2)":0,"activity call":"inactive"}
{"Target gene":"TENM4","two-siRNA summed score (-2 to +2)":0,"activity call":"inactive"}
{"Target gene":"KLHL41","two-siRNA summed score (-2 to +2)":0,"activity call":"inactive"}
{"Target gene":"LOC401891","two-siRNA summed score (-2 to +2)":1,"activity call":"inactive"}
{"Target gene":"BCL2L14","two-siRNA summed score (-2 to +2)":0,"activity call":"inactive"}
{"Target gene":"OR52E6","two-siRNA summed score (-2 to +2)":0,"activity call":"inactive"}
